Reference: the supplement of paper PMC3334620
The full ranking holds about 33,000 sequences; the median of “E-score (-0.5 to 0.5)” is about -0.0014, and the highest 2% start at about 0.25. Some of the results follow.

Target: T1, Cad1 (UniProt P24813)
T1 sequence: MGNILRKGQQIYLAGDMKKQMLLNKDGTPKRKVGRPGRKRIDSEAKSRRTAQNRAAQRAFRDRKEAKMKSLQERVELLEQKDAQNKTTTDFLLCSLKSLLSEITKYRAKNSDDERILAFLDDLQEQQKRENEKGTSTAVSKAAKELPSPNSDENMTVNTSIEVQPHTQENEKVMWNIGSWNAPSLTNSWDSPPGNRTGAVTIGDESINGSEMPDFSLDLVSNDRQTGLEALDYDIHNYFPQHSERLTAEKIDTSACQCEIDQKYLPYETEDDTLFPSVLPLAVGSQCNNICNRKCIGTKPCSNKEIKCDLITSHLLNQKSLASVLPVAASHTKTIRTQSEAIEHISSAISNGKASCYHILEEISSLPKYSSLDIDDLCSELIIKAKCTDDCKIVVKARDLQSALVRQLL
Assay: PBM E-score (8-mer binding enrichment) (E-score (-0.5 to 0.5)); higher = stronger / more preferred TF binding
Conditions: protein concentration: 100 nM; construct: GST-full length
Outline: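 Detection of bound protein used fluorescent anti-GST, with scans normalised by masliner. The proteins were GST-tagged yeast transcription factors applied at about 100-200 nM to universal all-10-mer Agilent arrays made double-stranded by primer extension. Each ungapped eight-base word, pooled with its reverse complement, was scored with an E-score from the Universal PBM Analysis Suite.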

Row | Sequence | PBM E-score
1 | CAATCCCA | -0.217
2 | ATACATGG | 0.0689
3 | CGCTTGAA | 0.179
4 | AAACAATC | 0.116
5 | ATCAGAGG | -0.0692
6 | ATTAATGA | 0.306
7 | ACGTGAGG | 0.0639
8 | TAAAGGTA | -0.0464
9 | CACTAAAG | -0.00408
10 | CTTTGATC | 0.0608
11 | ATTACAAC | 0.139
12 | ATACCTCA | -0.0623
13 | AAGACAAA | 0.117
14 | CAGCGGAC | 0.0365
15 | ACTTCCTC | -0.196
16 | CAGCCCTG | -0.178
17 | CTGGATTC | -0.171
18 | CGTTCCGC | 0.13
19 | AGCTGCCA | 0.0461
20 | CAAACTAC | -0.0121
21 | GCTCCCAC | -0.113
22 | ATTTTCAA | 0.162

Row | Sequence | PBM E-score
23 | ACATAGAA | 0.0216
24 | CCCACTTA | 0.187
25 | CGCAACAG | -0.00109
26 | CCAGATCG | -0.126
27 | AGTACACA | 0.0961
28 | GCTTTCGA | -0.246
29 | CTGGTTTA | -0.0899
30 | CACCTAAC | 0.014
31 | TCTCGACA | 0.0999
32 | ATTGTTTC | 0.183
33 | ATGTCAGG | -0.0849
34 | CCCGAGGA | -0.0293
35 | CAACTGTA | 0.0739
36 | CCACTTCG | -0.0941
37 | AGAGAAAG | -0.0812
38 | AACAGCTG | 0.204
39 | AACTGCAC | 0.135
40 | GCTGAAGA | 0.00892
41 | CGACGCAG | -0.075
42 | TCCCGTAA | -0.012
43 | ATTTGCTC | -0.19
44 | AGATTGTG | 0.0423

Two records drawn at random from those above, as already listed:
Row | Sequence | PBM E-score
8 | TAAAGGTA | -0.0464
1 | CAATCCCA | -0.217

Carrying on.

Row | Sequence | PBM E-score
45 | CAGCTACC | 0.0165
46 | ATTGCTCA | 0.199
47 | CAATCCGG | 0.148
48 | CGGGTCCC | -0.328
49 | GTCCTCAA | 0.0648
50 | AATTCTGA | 0.131
51 | TAAGCACA | 0.295
52 | GTGAGGGA | -0.258
53 | ATACACTC | -0.038
54 | CTCAAGGC | -0.0857
55 | CAACGTCG | 0.138
56 | GACGCGGA | -0.00342
57 | ATGTGCTC | 0.101
58 | ATCCCATG | -0.157
59 | CCGCATAC | -0.107
60 | GGTCAGCA | 0.191
61 | GCGTATAC | 0.118
62 | ATCCAGCA | 0.0328
63 | CGTTGTAC | 0.117
64 | AGGAGAAC | -0.262
65 | ATGGAGTA | -0.031
66 | CTAATTCA | 0.0862

Row | Sequence | PBM E-score
67 | CGCATGTA | -0.195
68 | CGTACAAG | -0.263
69 | ATGTCGTG | -0.101
70 | AGTTATAA | -0.037
71 | CAGTGAAA | 0.2
72 | ATGTCTGA | 0.129
73 | AAGCTCGA | 0.263
74 | ACTGTTAC | -0.0231
75 | AGTTATGC | 0.0711
76 | ACAGCACC | -0.154
77 | ACCGCCTA | -0.171
78 | CCATTTTC | 0.1
79 | CATATTAA | 0.272
80 | ACCAAGCA | 0.0367
81 | ACAGCCGG | 0.0334
82 | GGTTTGGA | -0.0883
83 | TGACTCAA | -0.0491
84 | ATCCAAAT | 0.0959
85 | GAAAACCA | -0.0585
86 | ATCGCATA | 0.0254

Looked up above:
PBM E-score, TCCCGTAA reads -0.012
PBM E-score, ATTACAAC reads 0.139
